Results deposited as PubChem BioAssay AID743121 (NCATS, 2013).

Screen: 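Partners whose loss is lethal together with topoisomerase I blockade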 (primary screen)
System: MDA-MB-231 cells, a human breast cancer line
Reagent: single siRNA against human genes, 20 nM siRNA (0.8 pmol per well)
Timing: 120 h (drug added 48 h after transfection, read 72 h later)
Conditions: camptothecin 20 nM (about EC30) for 72 h; vehicle 0.1% DMSO in parallel plates
Read-out: 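Cell viability by ATP luminescence (CellTiter-Glo) as % of non-targeting siRNA wells, and the log2 ratio of viability without drug over viability with camptothecin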
Scale: log2 vehicle/camptothecin viability: higher = stronger sensitisation to camptothecin; viability with camptothecin: higher = more viable cells
Rule for the call: 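Active genes have an RSA gene-level p-value below 0.001, computed from the ratios of their separate siRNAs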
In all, the deposit lists about 26,000 reagents; shown is a random part of them. 167 of them (0.63%) were called active. 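Calls are per gene from RSA p-values that are not deposited; an individual active-marked siRNA can sensitise only weakly.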 A number with no mark means an inactive call. Further read-outs or replicates are left out here.

DHRS7C (GeneID 201140) [SID164585799]: log2 vehicle/camptothecin viability = -0.364; viability with camptothecin (% of control) = 98.3
DHRS7C (GeneID 201140) [SID164585800]: log2 vehicle/camptothecin viability = -0.339; viability with camptothecin (% of control) = 73.7
DHRS7C (GeneID 201140) [SID164585801]: log2 vehicle/camptothecin viability = -0.25; viability with camptothecin (% of control) = 70.9
DHRS7C (GeneID 201140) [SID164585802]: log2 vehicle/camptothecin viability = -0.344; viability with camptothecin (% of control) = 57.9
PLXND1 (GeneID 23129) [SID164445800]: log2 vehicle/camptothecin viability = -0.156; viability with camptothecin (% of control) = 108
PLXND1 (GeneID 23129) [SID164445801]: log2 vehicle/camptothecin viability = -0.483; viability with camptothecin (% of control) = 62.8
PLXND1 (GeneID 23129) [SID164445803]: log2 vehicle/camptothecin viability = -0.389; viability with camptothecin (% of control) = 84.5
PLXND1 (GeneID 23129) [SID164445804]: log2 vehicle/camptothecin viability = -0.0364; viability with camptothecin (% of control) = 50
CAMLG (GeneID 819) [SID164356429]: log2 vehicle/camptothecin viability = 0.176; viability with camptothecin (% of control) = 81.5
CAMLG (GeneID 819) [SID164356430]: log2 vehicle/camptothecin viability = -0.0801; viability with camptothecin (% of control) = 39.4
CAMLG (GeneID 819) [SID164356431]: log2 vehicle/camptothecin viability = 0.206; viability with camptothecin (% of control) = 78.5
CAMLG (GeneID 819) [SID164356434]: log2 vehicle/camptothecin viability = -0.0693; viability with camptothecin (% of control) = 94.7
SRPK1 (GeneID 6732) [SID164389798]: log2 vehicle/camptothecin viability = 0.0721; viability with camptothecin (% of control) = 46.7
SRPK1 (GeneID 6732) [SID164389802]: log2 vehicle/camptothecin viability = 0.325; viability with camptothecin (% of control) = 62
SRPK1 (GeneID 6732) [SID164389803]: log2 vehicle/camptothecin viability = 0.00476; viability with camptothecin (% of control) = 84.7
SRPK1 (GeneID 6732) [SID164389804]: log2 vehicle/camptothecin viability = 0.112; viability with camptothecin (% of control) = 95.1

4 consecutive records from above, for reference:
CAMLG (GeneID 819) [SID164356434]: log2 vehicle/camptothecin viability = -0.0693; viability with camptothecin (% of control) = 94.7
SRPK1 (GeneID 6732) [SID164389798]: log2 vehicle/camptothecin viability = 0.0721; viability with camptothecin (% of control) = 46.7
SRPK1 (GeneID 6732) [SID164389802]: log2 vehicle/camptothecin viability = 0.325; viability with camptothecin (% of control) = 62
SRPK1 (GeneID 6732) [SID164389803]: log2 vehicle/camptothecin viability = 0.00476; viability with camptothecin (% of control) = 84.7

Additional results follow.
NRL (GeneID 4901) [SID164378505]: log2 vehicle/camptothecin viability = -0.204; viability with camptothecin (% of control) = 125
NRL (GeneID 4901) [SID164378507]: log2 vehicle/camptothecin viability = -0.0966; viability with camptothecin (% of control) = 93.4
NRL (GeneID 4901) [SID164378508]: log2 vehicle/camptothecin viability = -0.14; viability with camptothecin (% of control) = 109
CD69 (GeneID 969) [SID164357403]: log2 vehicle/camptothecin viability = 0.316; viability with camptothecin (% of control) = 47
CD69 (GeneID 969) [SID164357407]: log2 vehicle/camptothecin viability = -0.187; viability with camptothecin (% of control) = 86.9
CD69 (GeneID 969) [SID164357409]: log2 vehicle/camptothecin viability = -0.183; viability with camptothecin (% of control) = 91.1
CD69 (GeneID 969) [SID164357411]: log2 vehicle/camptothecin viability = -0.21; viability with camptothecin (% of control) = 79.9
DCSTAMP (GeneID 81501) [SID164537667]: log2 vehicle/camptothecin viability = -0.237; viability with camptothecin (% of control) = 42.6
DCSTAMP (GeneID 81501) [SID164537668]: log2 vehicle/camptothecin viability = -0.00527; viability with camptothecin (% of control) = 61.7
DCSTAMP (GeneID 81501) [SID164537669]: log2 vehicle/camptothecin viability = -0.135; viability with camptothecin (% of control) = 91.5
DCSTAMP (GeneID 81501) [SID164537670]: log2 vehicle/camptothecin viability = -0.14; viability with camptothecin (% of control) = 72.8
F2R (GeneID 2149) [SID164364048]: log2 vehicle/camptothecin viability = -0.123; viability with camptothecin (% of control) = 116
F2R (GeneID 2149) [SID164364049]: log2 vehicle/camptothecin viability = 0.0827; viability with camptothecin (% of control) = 57.8
F2R (GeneID 2149) [SID164364051]: log2 vehicle/camptothecin viability = -0.31; viability with camptothecin (% of control) = 97.2
F2R (GeneID 2149) [SID164364054]: log2 vehicle/camptothecin viability = 0.214; viability with camptothecin (% of control) = 36
KCNK13 (GeneID 56659) [SID164490702]: log2 vehicle/camptothecin viability = -0.171; viability with camptothecin (% of control) = 56.5
KCNK13 (GeneID 56659) [SID164490704]: log2 vehicle/camptothecin viability = -0.378; viability with camptothecin (% of control) = 86.9
KCNK13 (GeneID 56659) [SID164490705]: log2 vehicle/camptothecin viability = -0.568; viability with camptothecin (% of control) = 72.8
KCNK13 (GeneID 56659) [SID164490708]: log2 vehicle/camptothecin viability = 0.142; viability with camptothecin (% of control) = 31.8
